Data taken from publication PMC3217009.
No constants are given. Whether binding was seen depends on the method and setting. In cells and extracts the contact can be indirect. Some binding calls cover weakened binding; strength is not graded here.

Chains of the proteins cited; added tags and fusions are not shown.
UniProt O35718: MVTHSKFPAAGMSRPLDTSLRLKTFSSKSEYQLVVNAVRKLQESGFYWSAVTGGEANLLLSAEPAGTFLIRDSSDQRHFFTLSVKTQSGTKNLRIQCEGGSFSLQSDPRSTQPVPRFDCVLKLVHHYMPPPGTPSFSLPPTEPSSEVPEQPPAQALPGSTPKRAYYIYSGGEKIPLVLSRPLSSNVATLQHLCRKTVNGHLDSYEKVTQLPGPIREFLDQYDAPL
UniProt Q04207: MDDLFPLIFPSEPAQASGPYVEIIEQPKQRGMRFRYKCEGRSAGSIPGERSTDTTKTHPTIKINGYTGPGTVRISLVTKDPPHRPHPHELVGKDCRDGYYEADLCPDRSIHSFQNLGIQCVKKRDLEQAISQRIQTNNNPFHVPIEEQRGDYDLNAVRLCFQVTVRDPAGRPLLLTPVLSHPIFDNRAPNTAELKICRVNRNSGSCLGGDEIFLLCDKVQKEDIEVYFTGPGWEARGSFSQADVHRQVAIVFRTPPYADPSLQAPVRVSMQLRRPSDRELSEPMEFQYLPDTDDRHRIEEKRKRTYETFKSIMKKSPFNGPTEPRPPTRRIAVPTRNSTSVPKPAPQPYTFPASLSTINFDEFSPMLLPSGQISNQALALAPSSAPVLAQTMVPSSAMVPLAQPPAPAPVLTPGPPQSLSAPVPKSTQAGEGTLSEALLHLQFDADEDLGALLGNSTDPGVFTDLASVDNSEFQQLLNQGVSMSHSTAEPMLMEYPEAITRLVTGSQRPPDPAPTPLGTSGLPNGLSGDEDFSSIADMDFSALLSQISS

Biological target: SOCS3 (mouse (endogenous in RAW264.7)) (UniProt O35718)
Assay: co-IP; lysate of RAW264.7 cells treated with rmMFG-E8 (500 ng/mL) for 2 h or untreated; lysis in 150 mM NaCl, 1% Nonidet P-40, 50 mM Tris HCl pH 8.0, 1 mM PMSF; pre-cleared extract (80-100 µg protein) immunoprecipitated overnight at 4°C with anti-mouse SOCS3 Ab, protein G beads; Western blot with anti-p65 Ab

- binding: binds
Substance: NF-κB p65 (from UniProt Q04207 1-549)
